# Tested on: HT-29
# Assay: cells
# Assay type: functional, cell-based
# Conditions: Homo sapiens, HT-29, 24 h
smiles,measurement,value
CC(=O)Nc1nnc(S(N)(=O)=O)s1 [ACETAZOLAMIDE],IC50,53.8 µM

# Reference: ChEMBL document CHEMBL4311974, “Synthesis of coumarin-sulfonamide derivatives and determination of their cytotoxicity, carbonic anhydrase inhibitory and molecular docking studies” (Eur J Med Chem, 2019)
